According to PMC6453563:
These are yes or no findings as the source states them, for the method shown.

The chains behind the UniProt entries cited, without tags or fusion partners.
UniProt Q9VSL8: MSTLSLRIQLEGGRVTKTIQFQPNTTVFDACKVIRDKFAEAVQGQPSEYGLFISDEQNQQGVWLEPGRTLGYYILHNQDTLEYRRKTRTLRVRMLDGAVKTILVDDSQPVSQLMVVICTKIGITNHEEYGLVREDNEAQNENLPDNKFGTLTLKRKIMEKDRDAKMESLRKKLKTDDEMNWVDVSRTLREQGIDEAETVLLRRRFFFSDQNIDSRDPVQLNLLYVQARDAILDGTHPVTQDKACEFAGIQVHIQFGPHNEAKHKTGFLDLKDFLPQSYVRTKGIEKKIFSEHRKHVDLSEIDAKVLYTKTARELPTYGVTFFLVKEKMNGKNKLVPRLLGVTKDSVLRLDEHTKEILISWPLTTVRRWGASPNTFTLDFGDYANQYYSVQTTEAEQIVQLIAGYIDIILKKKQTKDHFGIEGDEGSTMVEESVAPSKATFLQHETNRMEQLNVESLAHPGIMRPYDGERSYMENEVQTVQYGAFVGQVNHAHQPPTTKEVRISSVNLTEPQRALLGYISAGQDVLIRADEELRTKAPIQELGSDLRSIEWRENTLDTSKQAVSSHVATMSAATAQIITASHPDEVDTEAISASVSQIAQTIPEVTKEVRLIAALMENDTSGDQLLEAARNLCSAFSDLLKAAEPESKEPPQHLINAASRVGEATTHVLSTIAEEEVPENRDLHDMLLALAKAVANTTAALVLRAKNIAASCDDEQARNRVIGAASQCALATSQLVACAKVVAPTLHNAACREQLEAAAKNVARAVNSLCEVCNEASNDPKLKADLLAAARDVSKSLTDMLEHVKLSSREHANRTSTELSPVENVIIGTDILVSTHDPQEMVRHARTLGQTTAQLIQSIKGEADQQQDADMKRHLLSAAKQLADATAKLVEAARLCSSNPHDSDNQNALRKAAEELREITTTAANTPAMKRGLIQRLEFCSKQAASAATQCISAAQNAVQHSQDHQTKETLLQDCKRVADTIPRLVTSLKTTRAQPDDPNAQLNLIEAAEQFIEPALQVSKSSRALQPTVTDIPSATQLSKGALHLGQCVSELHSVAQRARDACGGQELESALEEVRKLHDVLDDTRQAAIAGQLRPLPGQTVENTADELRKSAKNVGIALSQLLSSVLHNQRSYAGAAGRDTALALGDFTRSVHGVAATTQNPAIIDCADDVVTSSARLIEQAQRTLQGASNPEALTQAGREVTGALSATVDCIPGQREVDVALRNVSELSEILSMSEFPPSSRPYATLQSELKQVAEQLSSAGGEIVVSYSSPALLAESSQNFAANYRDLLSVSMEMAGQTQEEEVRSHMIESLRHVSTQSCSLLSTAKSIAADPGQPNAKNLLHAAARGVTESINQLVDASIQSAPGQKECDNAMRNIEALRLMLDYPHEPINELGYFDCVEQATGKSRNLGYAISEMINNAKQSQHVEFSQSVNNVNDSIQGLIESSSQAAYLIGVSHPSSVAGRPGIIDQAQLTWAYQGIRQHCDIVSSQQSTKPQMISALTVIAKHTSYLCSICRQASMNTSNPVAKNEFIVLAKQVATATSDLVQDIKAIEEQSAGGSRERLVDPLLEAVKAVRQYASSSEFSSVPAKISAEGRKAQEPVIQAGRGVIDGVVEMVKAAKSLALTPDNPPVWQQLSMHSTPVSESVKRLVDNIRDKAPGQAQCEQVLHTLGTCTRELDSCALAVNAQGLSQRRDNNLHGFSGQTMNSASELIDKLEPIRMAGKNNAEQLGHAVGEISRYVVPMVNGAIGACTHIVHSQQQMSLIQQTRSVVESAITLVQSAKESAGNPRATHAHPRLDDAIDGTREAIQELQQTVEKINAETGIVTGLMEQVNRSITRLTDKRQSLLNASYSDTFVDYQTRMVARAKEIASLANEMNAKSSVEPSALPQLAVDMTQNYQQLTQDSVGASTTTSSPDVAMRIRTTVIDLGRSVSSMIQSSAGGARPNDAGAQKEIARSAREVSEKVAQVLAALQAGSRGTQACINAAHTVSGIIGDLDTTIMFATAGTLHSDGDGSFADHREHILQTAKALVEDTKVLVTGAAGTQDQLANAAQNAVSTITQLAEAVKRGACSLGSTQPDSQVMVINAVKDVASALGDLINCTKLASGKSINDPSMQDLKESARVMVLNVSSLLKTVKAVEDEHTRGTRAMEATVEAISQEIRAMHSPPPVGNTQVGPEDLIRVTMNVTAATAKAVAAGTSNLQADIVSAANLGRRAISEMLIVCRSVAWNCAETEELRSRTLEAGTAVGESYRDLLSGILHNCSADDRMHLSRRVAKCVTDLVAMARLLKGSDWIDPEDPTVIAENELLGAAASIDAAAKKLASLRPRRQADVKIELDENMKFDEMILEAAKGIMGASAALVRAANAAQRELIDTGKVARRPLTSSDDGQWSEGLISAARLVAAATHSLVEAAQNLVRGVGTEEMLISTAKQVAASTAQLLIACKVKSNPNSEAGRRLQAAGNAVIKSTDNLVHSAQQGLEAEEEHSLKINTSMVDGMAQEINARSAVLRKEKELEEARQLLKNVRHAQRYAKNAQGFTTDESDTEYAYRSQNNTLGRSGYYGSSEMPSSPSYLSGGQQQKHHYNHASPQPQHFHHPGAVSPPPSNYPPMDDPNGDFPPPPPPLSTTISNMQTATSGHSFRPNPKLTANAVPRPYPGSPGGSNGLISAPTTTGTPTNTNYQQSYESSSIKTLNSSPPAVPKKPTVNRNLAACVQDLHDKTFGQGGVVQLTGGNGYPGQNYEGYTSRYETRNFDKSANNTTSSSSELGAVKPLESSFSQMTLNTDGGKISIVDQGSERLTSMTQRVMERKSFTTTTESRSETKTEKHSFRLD

Molecular target: Talin with internal YPet (Talin-I-YPet) (Drosophila) (UniProt Q9VSL8)
Assay: fluorescence correlation spectroscopy (molecular brightness); in vivo FCS in the muscle interior next to the muscle attachment site of living talin-I-YPet pupae (20, 24, 30 h APF); brightness (counts per particle) of Talin-I-YPet particles compared with free monomeric YPet expressed in flight muscles

**Q.** How did the binding turn out when “Talin with internal YPet (Talin-I-YPet) (from UniProt Q9VSL8 1-2836)” was run?
**A.** no binding
